Results are given in words; binding and its absence hold for the method and conditions named. Binding seen in cells or lysates may run through a third protein. Some binding calls cover weakened binding; strength is not graded here.
Tests used:
[1] = molecular target: wild-type ATF4 fused with FLAG (UniProt P18848); assay: co-IP; DPSCs transfected with FLAG-fused wild-type ATF4 or the 280-299 deletion mutant; co-precipitated endogenous KPNB1 detected by western blot
[2] = molecular target: Activating transcription factor 4 (human (endogenous in DPSCs)) (UniProt P18848); assay: co-IP; endogenous proteins of DPSC lysate (1 mg); primary antibody or isotype control IgG cross-linked to protein A/G magnetic beads (Pierce Crosslink Magnetic IP/Co-IP Kit), overnight at 4 °C; western blot; cells in control medium or odontoblastic medium (OM) for 3 days

Sequences of proteins named here, by UniProt entry; tags and fusion partners are left off.
UniProt P18848: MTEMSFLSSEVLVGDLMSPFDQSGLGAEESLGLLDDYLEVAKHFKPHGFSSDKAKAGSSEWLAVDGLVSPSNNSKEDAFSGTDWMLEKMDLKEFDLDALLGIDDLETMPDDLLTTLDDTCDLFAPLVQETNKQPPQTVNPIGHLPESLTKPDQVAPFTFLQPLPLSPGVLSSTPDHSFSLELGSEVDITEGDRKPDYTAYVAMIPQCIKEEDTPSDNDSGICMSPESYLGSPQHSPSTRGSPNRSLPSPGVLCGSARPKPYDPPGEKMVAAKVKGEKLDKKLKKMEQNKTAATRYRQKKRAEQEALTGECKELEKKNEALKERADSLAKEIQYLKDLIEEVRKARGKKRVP
UniProt Q14974: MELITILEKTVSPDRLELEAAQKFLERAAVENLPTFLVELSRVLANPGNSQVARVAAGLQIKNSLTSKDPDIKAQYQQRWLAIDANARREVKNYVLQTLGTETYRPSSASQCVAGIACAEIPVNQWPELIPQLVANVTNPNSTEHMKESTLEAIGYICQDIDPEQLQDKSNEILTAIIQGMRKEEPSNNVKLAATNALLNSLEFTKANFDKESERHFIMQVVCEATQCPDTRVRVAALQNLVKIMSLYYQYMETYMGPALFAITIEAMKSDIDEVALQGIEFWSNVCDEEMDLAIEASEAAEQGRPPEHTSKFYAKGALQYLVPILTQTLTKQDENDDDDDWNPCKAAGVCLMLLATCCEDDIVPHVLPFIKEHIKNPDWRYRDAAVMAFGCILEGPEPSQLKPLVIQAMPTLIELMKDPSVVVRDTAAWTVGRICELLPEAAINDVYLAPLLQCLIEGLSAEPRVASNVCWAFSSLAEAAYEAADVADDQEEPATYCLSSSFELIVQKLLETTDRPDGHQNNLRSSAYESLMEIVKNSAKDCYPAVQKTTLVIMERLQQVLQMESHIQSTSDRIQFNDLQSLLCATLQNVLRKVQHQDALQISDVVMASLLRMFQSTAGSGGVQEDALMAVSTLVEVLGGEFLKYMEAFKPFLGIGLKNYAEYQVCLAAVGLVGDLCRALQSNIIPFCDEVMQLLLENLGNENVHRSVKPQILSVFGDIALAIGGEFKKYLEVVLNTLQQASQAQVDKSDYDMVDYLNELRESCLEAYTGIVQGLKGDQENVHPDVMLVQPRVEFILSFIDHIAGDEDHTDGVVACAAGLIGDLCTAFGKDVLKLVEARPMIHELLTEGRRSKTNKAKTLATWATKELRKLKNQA

binding [1]: binds
binding [2]: binds
Substance: Importin subunit beta-1 (from UniProt Q14974 1-876)

Reference: publication PMC11600598
